Experiments:
mice = experiment: Acute oral toxicity in mice; format: in vivo; conditions: deaths during 7 days
Description: For determination of acute toxicity groups of 10 mice were treated orally with varying doses of compound observing the incidence of death, during a 7 days period. LD50 and LD 0.1 were calculated by means of a logarithmic-probit graph paper.

[1] = test system: ventricular fibrillation upon exposure to chloroform vapor; experiment: Protection against chloroform-induced ventricular fibrillation in mice; format: in vivo
From the text: The method used in mice was essentially the same as described by Lawson (J. Pham. Exp. Therap. 160, 22 (1968). Male mice (NMRI, 17-25 g) were used. Unanesthetized, untreated mice show cardiac ventricular fibrillation upon exposure to chloroform vapor. The ventricular fibrillation is abolished if the animals are pretreated with appropriate doses of known antiarrhythmic agents before exposure to chloroform.
For determination of antiarrhythmic effect groups of 10 mice were pretreated by the oral route with varying sublethal doses of compound 10 to 300 min. respectively before being placed individually in a beaker containing chloroform. The mouse was removed from the beaker at the time of respiratory arrest and the thorax opened. Examination of ventricular fibrillation was made by means of ECG-recordings (lead II). The effect of the compound was expressed as the number of animals in per cent which were protected from fibrillation.

`CCN(CC)CC(=O)Nc1c(C)cccc1C` [Lidocaine, 2-diethylamino-2', 6'-acetoxylidide, reference compound] was tested, and the “Toxicity LD50 p.o.” value (mice) was 445 mg/kg bodyweight, the “Percentage animals protected from fibrillation” value (from here on “Percentage animals protected”) ([1]; 45 mg/kg p.o. (one tenth of LD50), 10 min) was 30 per cent and the “Percentage animals protected” value ([1]; 45 mg/kg p.o. (one tenth of LD50), 60 min) was 10 per cent. For the same compound, the “Percentage animals protected” value ([1]; 150 mg/kg p.o. (LD 0.1), 10 min) was 70 per cent and the “Percentage animals protected” value ([1]; 150 mg/kg p.o. (LD 0.1), 60 min) was 20 per cent.

Source: patent publication US3976771A, “Glycylglycine amide preparations and method of use antiarrhythmic” (priority 1972, dated 1976)
